This is an account of results in patent US20080090257A1.

These are yes or no findings as the source states them, for the method shown. In cells and extracts the contact can be indirect. For some of these results: Binding can be weak; no strength is given. Tags and fused reporters may be left off the sequences shown.

Assay [1] concerns the target myc-tagged ERα. Nature of the assay: GST pull-down (summary of the examples).
Assay [2] concerns the target myc-tagged RXRα. Nature of the assay: GST pull-down (summary of the examples).
Assay [3] has as its target myc-tagged PPARγ (full-length). As to the kind of experiment: GST pull-down (summary of the examples).
In assay [4] the target is myc-tagged PPARγ (full-length). As to the kind of experiment: GST pull-down (FIG. 4A).
For assay [5], the target named is myc-tagged PPARγ with deletion of amino acids 1-281. Nature of the assay: GST pull-down of myc-tagged PPARγ truncates from COS7 lysate, anti-myc western blot. (A western blot detects proteins with antibodies after separation by electrophoresis.)
The target of assay [6] is myc-tagged ERα. As to the kind of experiment: GST pull-down from COS7 lysate.
In assay [7] the target is myc-tagged RXRα. As to the kind of experiment: GST pull-down from COS7 lysate.
Assay [8] deals with myc-tagged PPARγ (full-length). As to the kind of experiment: GST pull-down from COS7 lysate.
Assay [9] has as its target myc-tagged TRβ. Nature of the assay: GST pull-down from COS7 lysate, with or without ligand (T3 1 µM), anti-myc western blot.
In assay [10] the target is myc-tagged PPARγ with deletion of amino acids 1-205. Nature of the assay: GST pull-down of myc-tagged PPARγ constructs, anti-myc western blot.
Assay [11] addresses myc-tagged PPARγ (full-length). The assay is described as above.
Assay [12] addresses myc-tagged ERα. As to the kind of experiment: GST pull-down from COS7 lysate with or without ligand, anti-myc western blot.
For assay [13], the target named is myc-tagged RXRα. The description is as above.
Assay [14] addresses myc-tagged PPARγ (full-length). The assay is described as above.
Assay [15] addresses Flag-tagged PPARγ. As to the kind of experiment: co-IP with anti-GFP antibody, anti-Flag western blot (FIG. 4B).
Assay [16] addresses Flag-tagged PPARγ. As to the kind of experiment: co-IP with anti-GFP antibody from co-transfected cells with or without Tro, western blot.

B1: GST-CCPG fusion protein (protein, not shown: a dimerising Fc or GST)
chain: MGVRGLQGFVGSTCPHICTIVNIHELAERHRNKYPGCTPTIVVDAMCCLRYWYTAESWVCGGQWREYYCALRNFVAAFTSAGIKLIFFFDGMVEPGKRDEWVKRRLKNNREISKIFHYIKSKRDQPGRNMFFIPSGLAIFTRFALKTLGQETFCSLQEADYEVASYGLQHNCLGILGEDTDYLIYDTCPYFSIGDLCLESLQTIMLCREKLCESLGLRVADLPLLACLLGNDITPESMFESFRYKCLSSYASVKENAGKKGNIILAVSDYISKVLHLYQGEKKIEEMLPLGPNKALFYKGVTSYLLPGQKSPWLVQKPKGMITDKQQMVSLNPESKQEVPMCIDPEFKQEVPVCTNPESMQEVPMCMDPEPNQEASMCTDPESKQEVPMCTDSESKPEVSQYTNPESKQKLPSGIDTEFNLEALMCTHPEFKQEDVMDMEPEIKQVTMVSESEILKVARMHHVHSESYLVYNILSSGEIECSNTLEDELDQALPSQAFIYRPVRQRVYALLLGDWKDGASTGPVVKEWFVYPGNSLKHPDLVRPLQMTVQGGTPSLEVLWLSQEPAVQAQRLDTLLACFNLSSSREELQAVESPLRALCCLLIYLFVQVDTLSLEDLHAFIAQALCLQGKSTSQLMHLQLDYINSRAVQLGSLLVRGLTTLVLVNSACGFPWTTSEFMPWNVFDGKLFHQKYLQSEKGYAVEVLLEQNRSWLTKFHNLKAVVCKACSKENRRIVGRTHWDSPYTGRQGRQGYSSYRTDSTHGHSGQSWRNQGSGGRQHERNHWRRY
Take B1: the binding entry is given as “binds” in assay [1]; “binds” in assay [2]; “binds” in [3]; “binds” in assay [4]; “no binding” in assay [5]; “binds” in [6]. In addition, the binding result in assay [7] is “binds”; in assay [8] it was “binds”; in assay [9], “no binding (tested: ~20 µg of purified GST-CCPG on beads)”; in assay [10], “binds”; in [11], “binds”; in [12], “binds”. Also, the binding result in [13] and in assay [14] was “binds” throughout.

B2: GFP-tagged CCPG (GFP-CCPG) (protein, not shown: large carriers)
chain: B1 chain
Take B2: the binding result in assay [15] and in assay [16] was “binds” in each case.
